Results as given in PMC12670160, “A drug-repurposing screen of FDA- and EMA-approved drugs identifies two NF-κB inhibitors active against eumycetoma” (Journal of Antimicrobial Chemotherapy, 2025).
Structures can show the parent of a compound that is named as a salt. Where two headings read alike, the source gives them in different places. The whole screen tested about 5,300 compounds, of which about 130 (2.5%) showed an effect of 50% or more. Some of the results follow.

System: M. mycetomatis strain mm55
Details: 96 h, 2 µM
[1] = primary screen, metabolic activity vs growth control, inhibitor

Compound	% viability (m. mycetomatis hyphae) [%]	% viability [1] [%]
CCOC(=O)c1c(/C(C#N)=C\N)c2ccc(Cl)c(Cl)c2n1C [ONC0001155, khcb19]	95.74	–
C[C@]12CCC(=O)C[C@@H]1CC[C@@H]1[C@@H]2CC[C@]2(C)[C@@H](O)CC[C@@H]12 [ONC0001905, dihydrotestosterone]	67.61	–
COc1ccc(CCN)cc1OC [ONC0002315, homoveratrylamine]	62.69	–
Oc1ccc2c3c1O[C@H]1c4[nH]c5c(c4C[C@@]4(O)[C@@H](C2)N(CC2CC2)CC[C@]314)C[C@@]1(O)[C@H]2Cc3ccc(O)c4c3[C@@]1(CCN2CC1CC1)[C@H]5O4 [ONC0002653, norbinaltorphiminedihydrochloride]	66	–
C[C@@H]([C@H](O)c1ccccc1)N(C)C [ONC0005359, nmethyl ephedrine 1r2s]	56.78	–
CC(=O)Nc1ccc(Cc2ccc(NC(C)=O)cc2)cc1 [ONC0005081, fh1brdk4477]	82.01	–
O=C1NC(=S)NC(=O)C1C(=O)Nc1ccccc1 [ONC0002959, merbarone]	104.2	–
Cc1[nH]c2ccc(O)cc2c1CCN [ONC0000021, 2methyl5hydroxytryptamine]	80.31	–
O=Cc1cn(Cc2ccc(Cl)cc2)c2ccccc12 [ONC0001687, oncrasin1]	52.5	–
CCOC(=O)Nc1ccc(NCc2c(C)cc(C)cc2C)cc1N [ONC0001805, aa29504]	96.37	–
CC12CC(C=O)C(=O)CC1CCC1C2CCC2(C)C1CCC2(C)O (stereo not drawn) [ONC0004581, oxymetholone]	89.09	–
CCC[C@@H]1CC(=O)N([C@@H](CC)C(N)=O)C1 [ONC0001158, brivaracetam]	114.4	–
CCN1C[C@]2(OC(=O)c3ccccc3NC(C)=O)CC[C@@H](OC)[C@]34C1[C@@H](C[C@H]23)[C@@]1(O)C[C@H](OC)[C@H]2C[C@H]4[C@]1(O)[C@H]2OC [ONC0004594, lappaconite hydrobromide]	89.13	–
CO[C@H]1CC=C2CCN3CCC4=C(CC(=O)OC4)[C@]23C1 [ONC0001996, dihydroerythroidinehbr]	88.39	–
CC(=O)N(C)c1cc(-c2ccnc3c(C(=O)c4cccs4)cnn23)ccc1F [ONC0001266, lorediplon]	68.29	–
NC(=O)C[S@@+]([O-])C(c1ccccc1)c1ccccc1 [ONC0003958, armodafinil]	72.8	–
O=C(Nc1ccccc1F)N[C@H]1N=C(c2ccccc2)c2ccccc2NC1=O [ONC0000966, rsv604]	70.36	–
CC(=O)[C@H]1CC[C@H]2[C@@H]3CCC4C[C@](C)(O)CC[C@]4(C)[C@H]3CC[C@]12C (stereo partly drawn) [ONC0003017, ganaxolone]	117.2	–
C[N+](C)(C)CC#CCN1CCCC1=O [ONC0001461, oxotremorinem]	65.68	–
O=C1C=C2C=C[C@@H]3C[C@@]2(O1)[C@H]1CCCCN31 [ONC0004197, securinine]	79.41	–

Compound	% viability (m. mycetomatis hyphae) [%]	% viability [1] [%]
CC(=O)C1=C(O)[C@@H]2[C@H]3c4c[nH]c5cccc(c45)C[C@H]3C(C)(C)N2C1=O [ONC0000252, cyclopiazonicacid]	66.61	–
CN1CCC(c2c[nH]c3ccc(O)cc23)CC1 [ONC0001612, brl54443]	78.58	–
CC(=O)NCCCOc1ccc(C(=O)N2CCC(N3C(=O)CCc4ccccc43)CC2)cc1 [ONC0002419, fuscoside]	92.96	–
CC(N)Cc1c[nH]c2ccc(OCc3cccs3)cc12 (stereo not drawn) [ONC0001494, bw723c86]	82.05	–
CCN[C@@H](C)Cc1cccc(C(F)(F)F)c1 [ONC0002357, dexfenfluramine]	75.24	–
O[C@H]1[C@H]2[C@H](O)CCCN2C[C@H]1O [ONC0003483, swainsonine]	72	–
Cc1ccccc1-n1c(CF)nc2ccc(N)cc2c1=O [ONC0003405, afloqualone]	71.52	–
C/C=C/c1cc(OC)c(OC)cc1OC [ONC0003253, alphaasarone]	106.6	–
C=CC[C@]1(O)CC[C@H]2[C@@H]3CCC4=CC(=O)CCC4=C3C=C[C@@]21C [ONC0004095, altrenogest]	–	142.2
C[C@]12CC[C@@H](O)C[C@@H]1CC[C@@H]1[C@@H]2CC[C@]2(C)C(=O)CC[C@@H]12 [ONC0002295, androsterone]	65.55	–
CC(C)(C)[C@]1(O)C[C@@H]2OC(=O)C[C@@]23C(=O)O[C@@H]2OC(=O)[C@H](O)C213 (stereo partly drawn) [ONC0004934, bilobalide]	85.1	–
CC(=O)O[C@H]1CC[C@@]2(C)C(=CC(=O)[C@@H]3[C@@H]2CC[C@]2(C)C(=O)CC[C@@H]32)C1 [ONC0002730, 7oxodehydroepiandrosterone acetate]	95.04	–
COc1ccc2c(c1)[C@]13CCCC[C@@H]1[C@H](C2)N(C)CC3 [ONC0000542, dextromethorphan hydrobromide]	103	–
CN1CCCC1CCSc1ccc(O)cc1 (stereo not drawn) [ONC0000801, sib1553a]	88.75	–
CC(=O)N(C)c1cccc(-c2ccnc3c(C(=O)c4cccs4)cnn23)c1 [ONC0000812, indiplon]	81.71	–
NC(=O)[C@@H](CC1CC1)[C@@H](CCC(F)(F)F)C(=O)N[C@H]1N=C(c2ccccc2)c2cccc(F)c2NC1=O [ONC0002103, bms983970]	61.26	–
CCN(CC)C(=O)N[C@H]1C=C2c3cccc4[nH]cc(c34)C[C@H]2N(C)C1 [ONC0003438, lisuride maleate]	78.2	–
C#C[C@]1(O)CC[C@H]2[C@@H]3CCC4=CC(=O)CC[C@]4(C)[C@H]3CC[C@@]21C [ONC0003155, ethisterone]	–	83.31
CC(C)CC(N(C)C)C1(c2ccc(Cl)cc2)CCC1 (stereo not drawn) [ONC0005560, sibutramine hydrochloride]	80.99	–

One compound at a time (already shown).
O[C@H]1[C@H]2[C@H](O)CCCN2C[C@H]1O [ONC0003483, swainsonine] as listed: % viability (m. mycetomatis hyphae) [%]: 72
COc1ccc2c(c1)[C@]13CCCC[C@@H]1[C@H](C2)N(C)CC3 [ONC0000542, dextromethorphan hydrobromide] as listed: % viability (m. mycetomatis hyphae) [%]: 103
CN1CCC(c2c[nH]c3ccc(O)cc23)CC1 [ONC0001612, brl54443] as listed: % viability (m. mycetomatis hyphae) [%]: 78.58
